Measurements taken from PMC3348883.
Residue numbers refer to the chain shown, from its start. No constants are given. Whether binding was seen depends on the method and setting. In cells and extracts the contact can be indirect. Some results given as binding are weak or reduced against the parent protein; the word gives no strength. For part of these data: Tags and fused reporters may be left off the sequences shown.

Assays:
FLAG-MST2-Y81F (human) = biological target: T1, FLAG-MST2-Y81F (human) (UniProt Q13188); test: co-IP; HEK 293T cells co-transfected; lysates (20 mM Tris HCl pH 7.5, 150 mM NaCl, 10% glycerol, 1% Nonidet P-40) immunoprecipitated with anti-FLAG antibody, blotted with anti-GFP; with or without co-expressed Myc-c-Abl (MST2 with MST2) or 10 µM STI571 for 1 hour (Raf-1 with MST2)
T1 sequence: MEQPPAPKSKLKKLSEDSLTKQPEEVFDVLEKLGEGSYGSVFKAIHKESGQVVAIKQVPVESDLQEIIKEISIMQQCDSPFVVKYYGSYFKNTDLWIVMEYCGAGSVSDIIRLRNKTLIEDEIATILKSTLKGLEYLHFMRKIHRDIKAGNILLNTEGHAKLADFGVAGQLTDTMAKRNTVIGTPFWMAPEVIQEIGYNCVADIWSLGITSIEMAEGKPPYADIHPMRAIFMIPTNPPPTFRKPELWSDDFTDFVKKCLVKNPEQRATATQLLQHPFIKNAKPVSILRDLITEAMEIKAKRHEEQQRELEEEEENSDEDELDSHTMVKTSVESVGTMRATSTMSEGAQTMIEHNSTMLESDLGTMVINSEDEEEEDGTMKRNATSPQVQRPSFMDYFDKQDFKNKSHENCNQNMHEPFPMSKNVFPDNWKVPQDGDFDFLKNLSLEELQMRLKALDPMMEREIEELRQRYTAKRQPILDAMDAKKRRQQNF

[1] = biological target: T2, MST2 (mammalian Ste20-like kinase 2), wild type, FLAG- or GFP-tagged (human) (UniProt Q13188); test: as above
T2 sequence: T1 sequence with F81Y

[2] = biological target: T3, MST2, endogenous in Neuro2A cells (mouse (endogenous in Neuro2A)) (UniProt Q9JI10); test: co-IP; endogenous proteins; MST2 immunoprecipitates from Neuro2A cells treated with or without STI571, blotted with anti-Raf-1 antibody
T3 sequence: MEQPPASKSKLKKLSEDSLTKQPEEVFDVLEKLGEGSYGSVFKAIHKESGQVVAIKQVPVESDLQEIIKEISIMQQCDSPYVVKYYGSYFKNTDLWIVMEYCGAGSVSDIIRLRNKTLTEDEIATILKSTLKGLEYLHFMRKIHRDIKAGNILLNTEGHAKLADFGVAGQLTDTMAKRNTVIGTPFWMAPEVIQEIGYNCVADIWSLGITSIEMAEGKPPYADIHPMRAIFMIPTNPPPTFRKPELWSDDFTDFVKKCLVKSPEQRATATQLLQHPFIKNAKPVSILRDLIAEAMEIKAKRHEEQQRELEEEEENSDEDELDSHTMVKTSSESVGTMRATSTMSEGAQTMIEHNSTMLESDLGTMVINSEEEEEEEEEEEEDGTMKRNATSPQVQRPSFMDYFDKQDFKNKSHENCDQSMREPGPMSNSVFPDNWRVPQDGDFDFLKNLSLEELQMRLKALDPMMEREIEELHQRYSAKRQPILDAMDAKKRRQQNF

binding (FLAG-MST2-Y81F (human))	binding [1]	binding [2]	Substance
binds	binds		GFP-Raf-1 (from UniProt P04049 1-648) (enzyme)
		binds	Raf-1, endogenous in Neuro2A cells (from UniProt Q99N57 1-648) (enzyme)
